Earlier results as cited in patent publication US8501405B2, “Real-time sequencing methods and systems” (Pacific Biosciences of California, Inc., priority 2009, dated 2013).
Read-outs that look alike come from different tables or passages of the source.

B1: phi6: RNA-dependent RNA polymerase (protein, UniProt P11124 2-665, looked up)
RNA-directed RNA polymerase: PRRAPAFPLSDIKAQMLFANNIKAQQASKRSFKEGAIETYEGLLSVDPRFLSFKNELSRYLTDHFPANVDEYGRVYGNGVRTNFFGMRHMNGFPMIPATWPLASNLKKRADADLADGPVSERDNLLFRAAVRLMFSDLEPVPLKIRKGSSTCIPYFSNDMGTKIEIAERALEKAEEAGNLMLQGKFDDAYQLHQMGGAYYVVYRAQSTDAITLDPKTGKFVSKDRMVADFEYAVTGGEQGSLFAASKDASRLKEQYGIDVPDGFFCERRRTAMGGPFALNAPIMAVAQPVRNKIYSKYAYTFHHTTRLNKEEKVKEWSLCVATDVSDHDTFWPGWLRDLICDELLNMGYAPWWVKLFETSLKLPVYVGAPAPEQGHTLLGDPSNPDLEVGLSSGQGATDLMGTLLMSITYLVMQLDHTAPHLNSRIKDMPSACRFLDSYWQGHEEIRQISKSDDAILGWTKGRALVGGHRLFEMLKEGKVNPSPYMKISYEHGGAFLGDILLYDSRREPGSAIFVGNINSMLNNQFSPEYGVQSGVRDRSKRKRPFPGLAWASMKDTYGACPIYSDVLEAIERCWWNAFGESYRAYREDMLKRDTLELSRYVASMARQAGLAELTPIDLEVLADPNKLQYKWTEADVSANIHEVLMHGVSVEKTERFLRSVMPR
B2: Thermus thermophilus: DNA polymerase with reverse transcriptase activity (protein, UniProt P52028 1-834, looked up)
DNA polymerase I, thermostable: MEAMLPLFEPKGRVLLVDGHHLAYRTFFALKGLTTSRGEPVQAVYGFAKSLLKALKEDGYKAVFVVFDAKAPSFRHEAYEAYKAGRAPTPEDFPRQLALIKELVDLLGFTRLEVPGYEADDVLATLAKKAEKEGYEVRILTADRDLYQLVSDRVAVLHPEGHLITPEWLWEKYGLRPEQWVDFRALVGDPSDNLPGVKGIGEKTALKLLKEWGSLENLLKNLDRVKPENVREKIKAHLEDLRLSLELSRVRTDLPLEVDLAQGREPDREGLRAFLERLEFGSLLHEFGLLEAPAPLEEAPWPPPEGAFVGFVLSRPEPMWAELKALAACRDGRVHRAADPLAGLKDLKEVRGLLAKDLAVLASREGLDLVPGDDPMLLAYLLDPSNTTPEGVARRYGGEWTEDAAHRALLSERLHRNLLKRLEGEEKLLWLYHEVEKPLSRVLAHMEATGVRLDVAYLQALSLELAEEIRRLEEEVFRLAGHPFNLNSRDQLERVLFDELRLPALGKTQKTGKRSTSAAVLEALREAHPIVEKILQHRELTKLKNTYVDPLPSLVHPRTGRLHTRFNQTATATGRLSSSDPNLQNIPVRTPLGQRIRRAFVAEAGWALVALDYSQIELRVLAHLSGDENLIRVFQEGKDIHTQTASWMFGVPPEAVDPLMRRAAKTVNFGVLYGMSAHRLSQELAIPYEEAVAFIERYFQSFPKVRAWIEKTLEEGRKRGYVETLFGRRRYVPDLNARVKSVREAAERMAFNMPVQGTAADLMKLAMVKLFPRLREMGARMLLQVHDELLLEAPQARAEEVAALAKEAMEKAYPLAVPLEVEVGMGEDWLSAKG

[1] = DNA polymerases with reverse transcriptase activity, available values for DNA-dependent DNA polymerization

Molecule	Need primer to initiate [1]	Need primer to initiate (reverse transcriptases and RNA-dependent RNA polymerases)
phi29: DNA polymerase with reverse transcriptase activity	yes	–
E. coli pol I: DNA polymerase with reverse transcriptase activity	yes	–
B1	–	no
B2	yes	–
